# Structures can show the parent of a compound that is named as a salt. Hit rate of the full screen: of about 5,300 compounds, about 130 (2.5%) showed an effect of 50% or more. This is one part of the list.
# Tested on: M. mycetomatis strain mm55
# Details: primary screen, metabolic activity vs growth control; 96 h, 2 µM; inhibitor
row,Compound,% viability
1,"O[C@@H]1CCCC[C@H]1N1CCC(c2ccccc2)CC1 (racemic) [ONC0003549, vesamicol]",128.8%
2,"CCC[C@@H]1C[C@@H](C(=O)N[C@@H]([C@H]2O[C@H](SC)[C@H](OP(=O)(O)O)[C@@H](O)[C@H]2O)[C@H](C)Cl)N(C)C1 [ONC0004393, clindamycin phosphate]",107.7%
3,"CCCCCCNC(=O)n1cc(F)c(=O)[nH]c1=O [ONC0004030, carmofur]",126.2%
4,"CC(C)(C)c1ccc(S(=O)(=O)Nc2ccc(Cl)cc2C(=O)c2cc[n+]([O-])cc2)cc1 [ONC0000979, vercirnon]",86.34%
5,"Cc1ncc(-c2csc(N=C(N)N)n2)[nH]1 [ONC0001152, zaltidine]",100%
6,"COc1cc2c(NC3CCN(C(C)C)CC3)nc(N3CCC(F)(F)CC3)nc2cc1OCCCN1CCCC1 [ONC0001115, unc0642]",73.79%
7,"COc1cccc2c1C(=O)c1c(O)c3c(c(O)c1C2=O)C[C@@](O)(C(=O)CO)C[C@@H]3O[C@H]1C[C@H](N)[C@H](O[C@@H]2CCCCO2)[C@H](C)O1 [ONC0004649, pirarubicin]",69.04%
8,"COc1cc(O)cc([C@@H]2CC(=O)c3c(O)cc(O[C@@H]4O[C@H](CO)[C@@H](O)[C@H](O)[C@H]4O[C@@H]4O[C@@H](C)[C@H](O)[C@@H](O)[C@H]4O)cc3O2)c1 [ONC0004596, neohesperidin]",71.17%
9,"COC(=O)C1=CO[C@@H](O)[C@@H]2C(CO)=CC[C@H]12 [ONC0004731, genipin]",102.2%
10,"COc1cc(NS(=O)(=O)c2ccc(N)cc2)ncn1 [ONC0000667, sulfamonomethoxine]",141.2%
11,"Cc1cc(C)nc(NS(=O)(=O)c2ccc(N)cc2)n1 [ONC0000558, sulfamethazine]",83.18%
12,"CN(C(=O)CN(CCO)CC(=O)N(C)C(C)(C)Cc1ccccc1)C(C)(C)Cc1ccccc1 [ONC0002818, oxethazaine]",94.15%
13,"CC(C)(Oc1ccc(Cl)cc1)C(=O)OCCOC(=O)c1cccnc1 [ONC0004563, etofibrate]",63.31%
14,"COC(=O)N/N=C/c1c[n+]([O-])c2ccccc2[n+]1[O-] [ONC0004019, carbadox]",74.7%
15,"CC(C)N(CC[C@H](c1ccccc1)c1cc(CO)ccc1O)C(C)C [ONC0005033, 5hydroxymethyl tolterodine pnu 200577]",68.82%
16,"O=C(Nc1cnn2ccc(N3CCC[C@@H]3c3cc(F)ccc3F)nc12)N1CC[C@H](O)C1 [ONC0002218, larotrectinib sulfate]",73.99%
17,"CN1CCN2c3ncccc3Cc3ccccc3C2C1 (stereo not drawn) [ONC0005327, mirtazapine]",68.75%
18,"Cn1cc(C(F)(F)F)nc1-c1ccc(OCC(O)CNCCOc2ccc(O)c(C(N)=O)c2)cc1 (stereo not drawn) [ONC0002140, cgp20712a]",66.3%

# Given tab-delimited: part of the list above
row	Compound	% viability
9	COC(=O)C1=CO[C@@H](O)[C@@H]2C(CO)=CC[C@H]12 [ONC0004731, genipin]	102.2%
18	Cn1cc(C(F)(F)F)nc1-c1ccc(OCC(O)CNCCOc2ccc(O)c(C(N)=O)c2)cc1 (stereo not drawn) [ONC0002140, cgp20712a]	66.3%

# (more compounds)

row,Compound,% viability
1,"CN1C(=O)N[C@H](Cc2c[nH]c3c(Cl)cccc23)C1=O [ONC0000938, necrostatin 2]",58.02%
2,"O=[N+]([O-])C(Br)(CO)CO [ONC0002458, bronopol]",112.3%
3,"C[C@@H]1C/C=C/C=C/C=C/C=C/[C@H](O[C@@H]2O[C@H](C)[C@@H](O)[C@H](N)[C@@H]2O)C[C@@H]2O[C@](O)(C[C@@H](O)C[C@H]3O[C@@H]3/C=C/C(=O)O1)C[C@H](O)[C@H]2C(=O)O [ONC0003917, natamycin]",71.19%
4,"c1ccc2cc(C3=NCCN3)ncc2c1 [ONC0001503, bu226]",91.26%
5,"CN([C@@H](Cc1ccc(OS(=O)(=O)c2cccc3cnccc23)cc1)C(=O)N1CCN(c2ccccc2)CC1)S(=O)(=O)c1cccc2cnccc12 [ONC0002232, kn62]",73.7%
6,"C[N@+]12CCCC[C@@H]1CCC(=C(c1cccs1)c1cccs1)C2 (racemic) [ONC0003394, tiquizium bromide]",60.31%
7,"CCn1c(=O)c2c(nc(/C=C/c3ccc(OC)c(OC)c3)n2C)n(CC)c1=O [ONC0004283, istradefylline]",93.8%
8,"CNC(=O)c1c(F)cccc1Nc1nc(Nc2cc3c(cc2OC)CCN3C(=O)CN(C)C)nc2[nH]ccc12 [ONC0002603, gsk1838705a]",70.17%
9,CC(=O)SCCC(=O)N1C(C)CCCC1C(=O)O (stereo not drawn) [ONC0002902],60.17%
10,"Nc1nc2c(cnn2CCc2ccccc2)c2nc(-c3ccco3)nn12 [ONC0003530, sch58261]",82.98%
11,"CCC(C)CC(C)CCCCCCCCC(=O)N[C@H]1C[C@@H](O)[C@@H](NCCN)NC(=O)[C@@H]2[C@@H](O)CCN2C(=O)[C@H]([C@H](O)CCN)NC(=O)[C@H]([C@@H](O)[C@H](O)c2ccc(O)cc2)NC(=O)[C@@H]2C[C@@H](O)CN2C(=O)[C@H]([C@@H](C)O)NC1=O (stereo partly drawn) [ONC0002201, caspofungin acetate]",69.7%
12,"Cc1c(N)c(=O)n(-c2ccccc2)n1C [ONC0002326, ampyrone]",72.67%
13,"O=C(O)c1ccc[n+]([O-])c1 [ONC0005291, oxiniacic acid]",104%
14,"C=CCOc1ccccc1OCC(O)CNC(C)C (stereo not drawn) [ONC0004148, oxprenolol]",68.93%
15,"NC[C@H]1O[C@H](O[C@H]2[C@H](O)[C@@H](O[C@H]3O[C@H](CO)[C@@H](O)[C@H](N)[C@H]3O)[C@H](N)C[C@@H]2N)[C@H](N)C[C@@H]1O [ONC0000534, tobramycin]",98.2%
16,"O=C(/C=C/c1cccc(S(=O)(=O)Nc2ccccc2)c1)NO [ONC0004737, belinostat pxd101]",105.3%
17,"CC1(C)Cc2c(-c3ccccc3)c(-c3ccc(Cl)cc3)c(CC(=O)O)n2C1 [ONC0004646, licofelone]",64.95%
18,"CC(C)(C)c1cc(NC(=O)Nc2ccc(-c3cn4c(n3)sc3cc(OCCN5CCOCC5)ccc34)cc2)no1 [ONC0005094, quizartinib ac220]",95.94%
